Source: PubChem BioAssay AID504467 (National Center for Advancing Translational Sciences (NCATS), 2011)
Screen size: about 330,000 compounds; about 7,700 (2.3%) were called active. This list was built around the results that the source calls inconclusive (neither active nor inactive); the mix of calls is not that of the screen. Calls follow the shape of the dose curve; as a rule, active = well fitted inhibition curve with a large enough effect; inconclusive = small, poorly fitted or top-dose-only effect, or effect the other way; inactive = flat fitted curve, though single readings scatter. A potency beside an inconclusive call is a rough fit, not a confirmed value.

Test: qHTS screen for small molecules that inhibit ELG1-dependent DNA repair in human embryonic kidney (HEK293T) cells expressing luciferase-tagged ELG1; also: nearly all actives have a fitted effect of over 55% in size
Details: HEK293T ELG1-luciferase reporter, luminescence, 16 h, DNA damage induced by 5-fluorouridine; series mostly up to 46.1 µM
Method in brief: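 Cells (2,000 per well) received 5-fluorouridine plus test compound or DMSO and were incubated 16 hr at 37 °C, 5% CO2. Luciferase activity was read by luminescence 30 min after ONE-Glo addition; signal suppression marked inhibition of damage-induced ELG1 function.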
Potency is read from the fitted curve at half-maximal effect.

SMILES	Potency
O=C(O)c1cc(-c2cc3ccccc3o2)nn1-c1ccccc1	inconclusive: 32.6 µM [activator, partial curve, poor fit]
Cc1nc(CN(C)C(=O)CC2C(=O)NCCN2Cc2ccc(-c3ccccc3)cc2)cs1 (configuration not stated)	inactive
COc1ccccc1OCc1nc2ccccc2[nH]1	inconclusive: 9.2 µM [activator, partial curve]
CCCCCN(C(=O)CCC(=O)OCC(=O)c1ccc(CCC)cc1)c1c(N)n(CCCC)c(=O)[nH]c1=O	inactive
O=C(CN1CCC(O)(c2ccc3c(c2)OCO3)CC1)NC1CCCCC1	inconclusive: 0.0052 µM [inhibitor, full curve]
CN(C)c1ccc(C(=O)Nc2cccc(S(=O)(=O)N3CCCC3)c2)cc1	inconclusive: 2.59 µM [activator, single point]
Cn1c(Cc2ccccc2)nnc1SCC(=O)Nc1ccccc1	inconclusive: 29.1 µM [inhibitor, single point]
CC1(c2ccc(Cl)cc2)NC(=O)N(CC(=O)N2CCc3ccccc32)C1=O (configuration not stated)	inactive
COc1ccc(NC(=S)N/N=C2\CC(C)(C)Oc3ccc(OC)cc32)cc1	inactive
COc1ccc(NC(=O)CC(C)NCCCN2CCCC2=O)cc1 (configuration not stated)	inactive
Cc1nc2ccc(Br)cn2c(=O)c1Cl	inactive
NS(=O)(=O)c1ccc(N/C=C\C(=O)c2cccc3ccccc23)cc1	inconclusive: 13 µM [activator, partial curve, poor fit]
CCCCCC(=O)Nc1nc(C)c(-c2csc(Nc3cc(OC)ccc3OC)n2)s1	inconclusive: 23.1 µM [inhibitor, single point]
COc1ccc(CC2(CO)CCN(S(=O)(=O)c3sccc3C)CC2)cc1	active: 18.3 µM
CCCCCCn1c(N2CCC(C(N)=O)CC2)nc2c1c(=O)n(C)c(=O)n2C	inconclusive: 13 µM [inhibitor, partial curve]
CCn1ccc2c(OCC(=O)NCCc3ccc(OC)c(OC)c3)cccc2c1=O	inconclusive: 29.1 µM [inhibitor, single point]
CCCOc1ccc(C(=O)Nc2ccc(S(=O)(=O)NC3=NCCCCC3)cc2)cc1	inconclusive: 5.8 µM [inhibitor, single point]
COc1ccc(C(=O)Nc2cnc3ccccn3c2=O)cc1	inconclusive: 9.2 µM [activator, partial curve]
CC1(C)Cc2c(C#N)c(NCCCO)nc(-c3ccccc3)c2CO1	inconclusive: 23.1 µM [inhibitor, single point]
Cc1ccc2[nH]c(=O)c(CN(CCN3CCOCC3)C(=O)Nc3ccc(F)cc3)cc2c1	inconclusive: 28.2 µM [inhibitor, single point]
O=C(NCCC(=O)N1CCN(c2ccccn2)CC1)c1ccc(Cl)cc1	inactive
O=C(COc1ccccc1/C=C1\SC(=O)NC1=O)Nc1ccc(F)cc1	inactive
Nc1n[nH]c(N)c1N=Nc1ccccc1	inactive
O=C(OCC(=O)N1CCN(S(=O)(=O)c2ccc(Cl)cc2)CC1)c1cccc(OC(F)F)c1	inactive

Pulled by structure from the list above:
SMILES	Potency
CCCCCN(C(=O)CCC(=O)OCC(=O)c1ccc(CCC)cc1)c1c(N)n(CCCC)c(=O)[nH]c1=O	inactive
COc1ccc(C(=O)Nc2cnc3ccccn3c2=O)cc1	inconclusive: 9.2 µM [activator, partial curve]

Further compounds:

SMILES	Potency
CC(=O)c1cccc(NC(=O)c2ccc(S(=O)(=O)N3CCCCC3)cc2)c1	inconclusive: 29.1 µM [inhibitor, single point]
COCCNC(=O)CN1C(=O)/C(=C/c2ccccc2)Oc2ccc(C(C)(C)C)cc21	inconclusive: 18.3 µM [inhibitor, partial curve]
COc1ccc(-c2csc3ncnc(N4CCN(S(=O)(=O)c5cccc(C(F)(F)F)c5)CC4)c23)cc1	inconclusive: 3.66 µM [inhibitor, single point]
CCOc1ccccc1N1CCN(S(=O)(=O)c2cc(C)ccc2OC)CC1	inconclusive: 13 µM [activator, partial curve]
Cc1ccccc1N1CCN(C2CCCN(C(=O)c3csc(C(C)C)n3)C2)CC1 (configuration not stated)	inconclusive: 16.4 µM [inhibitor, partial curve]
O=C(Nc1ccccc1)Nc1ccccc1C(=O)NCc1ccccc1	inconclusive: 29.1 µM [activator, partial curve, poor fit]
CONc1nc(NC(C)(C)C)nc(OCC#N)n1	inconclusive: 14.6 µM [activator, partial curve, poor fit]
COc1ccccc1/C=C(/C#N)C(=O)O	inactive
COc1ccc(S(=O)(=O)N2CCOC2CNC(=O)C(=O)NCc2ccccc2OC)cc1 (configuration not stated)	inconclusive: 18.3 µM [inhibitor, single point]
Cc1cccc(C(=O)NNC(=O)Nc2ccccc2)c1	inactive
CCN(CC)CCNC(=O)c1ccc(NC(=O)c2ccc(C(=O)c3ccccc3)cc2)cc1	inconclusive: 6.51 µM [inhibitor, single point]
CCCCOc1ccccc1C1CC(=O)NC2=C1C(=O)CCC2 (configuration not stated)	inactive
CN(Cc1c(F)cccc1Cl)C(=O)c1ccc(NC(=O)CC2SC(N3CCCCC3)=NC2=O)cc1 (configuration not stated)	inconclusive: 29.1 µM [inhibitor, single point]
CCOC(=O)C(=O)N1CCC(C(=O)OCC)CC1	inactive
O=C(Nc1ccc2c(c1)OCO2)c1ccc(NC2CC2)c([N+](=O)[O-])c1	inactive
O/N=C/c1ccc(-c2cc(Cl)ccc2Cl)o1	inconclusive: 9.2 µM [inhibitor, partial curve]
COc1ccc(S(=O)(=O)N2CCCC2)cc1C(=O)O	inactive
O=C(CCl)Nc1c2c(nn1-c1ccccc1)CSC2	inconclusive: 29.1 µM [inhibitor, single point]
CC(C)Sc1ncnc2c1cnn2-c1ccccc1	inconclusive: 4.61 µM [activator, full curve]
Cc1ccc(NC(=O)CCc2ccccc2)cc1S(=O)(=O)N1CCOCC1	inconclusive: 23.1 µM [inhibitor, single point]
COc1ccc(NS(=O)(=O)c2ccc(NC(=O)C3CCCO3)cc2)cc1 (configuration not stated)	inactive
CC(C)N(Cc1ccccc1)C(=S)NC1CCCCC1	inactive
CC(=O)c1c(C)[nH]c(C(=O)Nc2ccc(Cl)c(S(=O)(=O)N(C)C)c2)c1C	inconclusive: 6.51 µM [activator, partial curve]
